Results are given in words; binding and its absence hold for the method and conditions named. Some entries that bind do so weakly or less than the wild type.
Tests used:
[1] = molecular target: glial tau pathology in caudate nucleus of corticobasal degeneration (CBD) brain sections (human) (UniProt P10636); assay: immunohistochemistry on paraffin brain sections
[2] = molecular target: Pick's bodies in the dentate gyrus of FTD (Pick's disease) brain sections (human) (UniProt P10636); assay: immunohistochemistry on paraffin brain sections
[3] = molecular target: tau pathology in Alzheimer's disease brain sections (neurofibrillary tangles, neuropil threads, neuritic plaques) (human) (UniProt P10636); assay: immunohistochemistry on paraffin brain sections
[4] = molecular target: glial tau pathology in putamen/caudate nucleus of progressive supranuclear palsy (PSP) brain sections (human) (UniProt P10636); assay: immunohistochemistry on paraffin brain sections
[5] = molecular target: sarcosyl-insoluble tau isolated from human Alzheimer's disease brain tissue (PHF-tau) (human) (UniProt P10636); assay: ELISA screen of hybridoma supernatants on coated PHF-tau
[6] = molecular target: sarcosyl-insoluble tau isolated from human Alzheimer's disease brain tissue (PHF-tau) (human) (UniProt P10636); assay: immunoblot
fetal rat tau (rat) [7] = molecular target: fetal rat tau (rat) (UniProt P19332); assay: immunoblot
[8] = molecular target: insoluble tau complexes isolated from corticobasal degeneration brain (human) (UniProt P10636); assay: immunoblot of sarkosyl-insoluble tau
[9] = molecular target: insoluble tau complexes isolated from FTD brain (human) (UniProt P10636); assay: immunoblot of sarkosyl-insoluble tau
[10] = molecular target: sarcosyl-insoluble tau isolated from human Alzheimer's disease brain tissue (PHF-tau) (human) (UniProt P10636); assay: immunoblot of sarkosyl-insoluble tau
[11] = molecular target: sarcosyl-insoluble tau isolated from human Alzheimer's disease brain tissue (PHF-tau) (human) (UniProt P10636); assay: immunoblot (summary of Example 8)
fetal rat tau (rat) [12] = molecular target: fetal rat tau (rat) (UniProt P19332); assay: immunoblot (summary of Example 8)

Protein sequences, listed by entry. Tags and fused reporters are not part of them. Lines headed by an entry give the natural chain unless they say otherwise; changes in a name come on top. Chains listed by the source or under a name are the forms on record and can include a tag or linker.
sarcosyl-insoluble tau isolated from human Alzheimer's disease brain tissue (PHF-tau) (P10636, form named): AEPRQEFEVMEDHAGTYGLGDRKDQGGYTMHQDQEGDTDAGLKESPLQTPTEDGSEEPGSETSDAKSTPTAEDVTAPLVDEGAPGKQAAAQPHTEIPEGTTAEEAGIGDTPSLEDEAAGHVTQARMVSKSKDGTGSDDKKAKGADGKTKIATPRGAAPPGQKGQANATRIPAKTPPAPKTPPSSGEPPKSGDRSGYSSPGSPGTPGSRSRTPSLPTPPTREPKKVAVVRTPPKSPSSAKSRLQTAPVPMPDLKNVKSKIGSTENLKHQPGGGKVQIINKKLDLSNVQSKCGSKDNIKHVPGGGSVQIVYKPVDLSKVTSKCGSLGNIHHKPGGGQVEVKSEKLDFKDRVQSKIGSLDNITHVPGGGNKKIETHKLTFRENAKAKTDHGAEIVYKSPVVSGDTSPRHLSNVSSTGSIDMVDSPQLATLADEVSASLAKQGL
Pick's bodies in the dentate gyrus of FTD (Pick's disease) brain sections (P10636, form named): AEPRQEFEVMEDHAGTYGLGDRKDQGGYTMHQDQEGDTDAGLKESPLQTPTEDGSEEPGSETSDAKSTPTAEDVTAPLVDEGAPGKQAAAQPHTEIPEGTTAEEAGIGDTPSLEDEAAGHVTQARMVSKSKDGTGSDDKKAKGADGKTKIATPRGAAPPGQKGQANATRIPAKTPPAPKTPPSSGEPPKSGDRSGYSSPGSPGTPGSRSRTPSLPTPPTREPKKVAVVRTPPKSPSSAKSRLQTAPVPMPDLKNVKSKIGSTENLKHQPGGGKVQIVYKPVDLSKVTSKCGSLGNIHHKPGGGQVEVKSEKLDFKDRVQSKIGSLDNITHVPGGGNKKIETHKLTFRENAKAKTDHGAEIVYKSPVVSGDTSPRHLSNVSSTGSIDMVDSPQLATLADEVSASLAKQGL
fetal rat tau (P19332, form named): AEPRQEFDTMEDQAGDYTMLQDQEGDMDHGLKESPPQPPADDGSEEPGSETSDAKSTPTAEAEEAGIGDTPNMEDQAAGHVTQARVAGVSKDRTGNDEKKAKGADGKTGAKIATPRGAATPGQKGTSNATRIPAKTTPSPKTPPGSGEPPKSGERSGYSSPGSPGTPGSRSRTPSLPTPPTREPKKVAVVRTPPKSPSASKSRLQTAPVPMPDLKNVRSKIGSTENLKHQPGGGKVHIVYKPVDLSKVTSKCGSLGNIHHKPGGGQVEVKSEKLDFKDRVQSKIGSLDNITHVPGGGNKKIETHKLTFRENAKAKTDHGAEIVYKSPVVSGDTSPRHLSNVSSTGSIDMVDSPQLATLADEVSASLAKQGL

binding [1]: binds
binding [2]: binds
binding [3]: binds
binding [4]: binds
binding [5]: binds
binding [6]: binds
binding (fetal rat tau (rat) [7]): binds
binding [8]: binds
binding [9]: binds
binding [10]: binds
binding [11]: binds
binding (fetal rat tau (rat) [12]): binds
B1: monoclonal antibody DC2E7 (antibody, V domains shown)
VH: DVQLVESGGGLVQPGGSRKLSCAASGFTFSSFGMHWVRQAPEKGLEWVAYISGDSNTIYYADTVKGRFTISRDNPKNTLFLQMTSLRSEDTAIYYCARTLAYWGQGTLVTVS
VL: DIQMTQSSSSFSVSLGDRVTITCKASEDIYNRLAWYQQTPGNAPSLLISGASGLETGVPSRFSGSGSGRDYTLSITSLQTEDVATYYCLQYWSIPWTFGGGTKLEIKR
